Reference: PMC10803403
These are yes or no findings as the source states them, for the method shown. Binding seen in cells or lysates may run through a third protein. Here binding means that the protein was enriched with, or labelled near, the bait; the list need not be complete. Values belong to the molecule of their own block, whether it stands above or below them.

The chains behind the UniProt entries cited, without tags or fusion partners.
UniProt P05556: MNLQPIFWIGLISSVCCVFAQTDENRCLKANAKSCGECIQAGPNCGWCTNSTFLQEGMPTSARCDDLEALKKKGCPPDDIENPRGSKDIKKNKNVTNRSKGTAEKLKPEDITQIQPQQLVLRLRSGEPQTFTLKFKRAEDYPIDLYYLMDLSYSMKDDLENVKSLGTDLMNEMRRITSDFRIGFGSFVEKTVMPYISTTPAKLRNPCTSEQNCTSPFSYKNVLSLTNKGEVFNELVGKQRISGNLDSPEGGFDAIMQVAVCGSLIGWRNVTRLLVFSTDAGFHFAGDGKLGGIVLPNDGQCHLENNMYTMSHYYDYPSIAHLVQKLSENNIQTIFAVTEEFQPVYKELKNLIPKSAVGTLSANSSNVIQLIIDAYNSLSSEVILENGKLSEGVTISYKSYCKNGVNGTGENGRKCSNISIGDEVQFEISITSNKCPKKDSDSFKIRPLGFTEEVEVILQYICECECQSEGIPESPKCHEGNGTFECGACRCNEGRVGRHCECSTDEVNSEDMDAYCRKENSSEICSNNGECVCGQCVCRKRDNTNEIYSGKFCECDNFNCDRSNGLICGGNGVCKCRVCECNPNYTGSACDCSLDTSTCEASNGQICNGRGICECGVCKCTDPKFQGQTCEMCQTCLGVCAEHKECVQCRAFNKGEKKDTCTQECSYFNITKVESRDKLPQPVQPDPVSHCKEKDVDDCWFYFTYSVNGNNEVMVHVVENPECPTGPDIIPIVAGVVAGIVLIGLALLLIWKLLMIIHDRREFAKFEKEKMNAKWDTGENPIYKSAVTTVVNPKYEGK
UniProt Q13200: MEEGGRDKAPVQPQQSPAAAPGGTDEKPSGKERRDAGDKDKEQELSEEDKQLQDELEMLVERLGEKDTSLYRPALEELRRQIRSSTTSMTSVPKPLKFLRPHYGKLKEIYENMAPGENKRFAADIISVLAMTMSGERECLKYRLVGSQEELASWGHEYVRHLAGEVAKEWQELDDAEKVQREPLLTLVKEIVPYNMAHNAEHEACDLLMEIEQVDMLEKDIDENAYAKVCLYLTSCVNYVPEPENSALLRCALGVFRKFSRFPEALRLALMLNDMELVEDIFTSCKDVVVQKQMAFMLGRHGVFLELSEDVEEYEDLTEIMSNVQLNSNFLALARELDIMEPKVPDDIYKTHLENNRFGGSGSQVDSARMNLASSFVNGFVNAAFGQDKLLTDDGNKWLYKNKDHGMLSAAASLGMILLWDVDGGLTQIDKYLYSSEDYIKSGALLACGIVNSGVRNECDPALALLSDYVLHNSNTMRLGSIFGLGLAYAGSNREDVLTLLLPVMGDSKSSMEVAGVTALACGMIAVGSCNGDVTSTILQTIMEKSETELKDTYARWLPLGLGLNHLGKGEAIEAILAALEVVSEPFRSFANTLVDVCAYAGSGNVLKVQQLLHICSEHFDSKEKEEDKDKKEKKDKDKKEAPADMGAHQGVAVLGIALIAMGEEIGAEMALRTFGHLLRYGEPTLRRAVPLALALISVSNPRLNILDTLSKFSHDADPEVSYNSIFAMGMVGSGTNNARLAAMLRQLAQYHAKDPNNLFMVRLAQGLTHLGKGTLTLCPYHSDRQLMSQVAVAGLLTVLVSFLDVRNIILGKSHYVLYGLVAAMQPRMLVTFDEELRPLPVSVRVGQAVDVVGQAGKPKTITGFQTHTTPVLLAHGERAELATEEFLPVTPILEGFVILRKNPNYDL

Target: integrin β1 chain (human (endogenous in Hep2)) (UniProt P05556)
Assay: affinity purification with mass spectrometry; Hep2 cells stimulated with GAS-FbaA, S.a-FnBpA or L.m-FbpA in the presence of Fn protein; Co-IP with anti-integrin β1 mAb; hits are the intersection of the three FnBp groups minus the proteins of the Fn-alone group

binding: binds
Molecule: PSMD2 (from UniProt Q13200 1-908)

binding: binds
B1: S100A8 (protein, UniProt P05109 1-93)
chain: MLTELEKALNSIIDVYHKYSLIKGNFHAVYRDDLKKLLETECPQYIRKKGADVWFKELDINTDGAVNFQEFLILVIKMGVAAHKKSHEESHKE
